Binding data for three substances are collected here from PMC5557982.

The chains behind the UniProt entries cited, without tags or fusion partners.
UniProt Q8C2K1: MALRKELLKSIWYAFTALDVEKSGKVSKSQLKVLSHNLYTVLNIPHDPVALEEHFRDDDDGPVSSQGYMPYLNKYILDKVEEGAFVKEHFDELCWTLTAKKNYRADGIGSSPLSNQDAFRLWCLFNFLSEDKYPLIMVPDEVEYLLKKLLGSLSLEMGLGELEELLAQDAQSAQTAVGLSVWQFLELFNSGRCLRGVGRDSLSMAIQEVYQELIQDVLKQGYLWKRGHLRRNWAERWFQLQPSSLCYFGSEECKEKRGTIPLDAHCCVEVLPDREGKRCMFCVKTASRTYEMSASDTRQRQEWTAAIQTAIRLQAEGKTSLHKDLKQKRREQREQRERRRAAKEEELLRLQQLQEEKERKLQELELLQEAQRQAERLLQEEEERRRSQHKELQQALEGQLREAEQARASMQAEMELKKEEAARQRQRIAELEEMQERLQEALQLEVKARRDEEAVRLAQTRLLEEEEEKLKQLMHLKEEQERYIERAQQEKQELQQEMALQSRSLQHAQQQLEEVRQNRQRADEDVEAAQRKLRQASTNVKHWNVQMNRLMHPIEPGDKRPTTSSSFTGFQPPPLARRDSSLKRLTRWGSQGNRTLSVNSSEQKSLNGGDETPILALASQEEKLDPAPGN
UniProt Q8N122: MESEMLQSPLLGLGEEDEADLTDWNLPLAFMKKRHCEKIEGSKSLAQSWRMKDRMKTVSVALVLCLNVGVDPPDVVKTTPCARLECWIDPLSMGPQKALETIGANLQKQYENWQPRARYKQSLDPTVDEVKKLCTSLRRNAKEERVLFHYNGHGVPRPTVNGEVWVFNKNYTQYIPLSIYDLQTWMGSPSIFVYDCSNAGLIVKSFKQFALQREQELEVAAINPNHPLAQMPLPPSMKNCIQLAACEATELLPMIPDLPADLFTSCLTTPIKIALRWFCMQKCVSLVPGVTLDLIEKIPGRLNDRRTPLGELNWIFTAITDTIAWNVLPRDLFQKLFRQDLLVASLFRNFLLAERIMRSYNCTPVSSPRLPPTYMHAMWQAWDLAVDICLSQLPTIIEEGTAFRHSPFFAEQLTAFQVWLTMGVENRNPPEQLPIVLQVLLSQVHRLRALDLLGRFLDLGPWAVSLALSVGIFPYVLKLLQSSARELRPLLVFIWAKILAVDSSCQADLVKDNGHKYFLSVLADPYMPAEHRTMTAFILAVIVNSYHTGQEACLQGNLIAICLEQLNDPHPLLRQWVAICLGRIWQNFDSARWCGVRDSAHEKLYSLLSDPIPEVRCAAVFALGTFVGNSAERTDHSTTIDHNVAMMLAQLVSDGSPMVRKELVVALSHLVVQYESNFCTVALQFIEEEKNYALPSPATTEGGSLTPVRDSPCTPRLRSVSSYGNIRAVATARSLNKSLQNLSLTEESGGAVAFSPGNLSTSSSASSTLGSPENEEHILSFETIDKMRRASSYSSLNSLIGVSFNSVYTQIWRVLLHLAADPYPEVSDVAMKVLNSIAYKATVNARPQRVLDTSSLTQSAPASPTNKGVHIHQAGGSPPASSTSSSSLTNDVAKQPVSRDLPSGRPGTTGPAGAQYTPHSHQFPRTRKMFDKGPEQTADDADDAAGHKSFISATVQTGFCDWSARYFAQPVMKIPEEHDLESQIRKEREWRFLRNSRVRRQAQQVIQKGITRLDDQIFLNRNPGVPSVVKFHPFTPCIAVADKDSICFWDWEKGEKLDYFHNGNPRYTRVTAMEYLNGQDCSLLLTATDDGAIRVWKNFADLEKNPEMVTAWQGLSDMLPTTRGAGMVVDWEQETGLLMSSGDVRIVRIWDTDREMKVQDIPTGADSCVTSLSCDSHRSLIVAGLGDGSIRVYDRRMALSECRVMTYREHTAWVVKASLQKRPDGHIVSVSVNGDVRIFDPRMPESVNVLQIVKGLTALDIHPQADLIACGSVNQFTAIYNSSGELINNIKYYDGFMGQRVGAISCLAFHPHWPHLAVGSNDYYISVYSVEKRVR

These are yes or no findings as the source states them, for the method shown. In cells and extracts the contact can be indirect. Some binding calls cover weakened binding; strength is not graded here.

One test deals with HA-tagged p62 (UniProt Q13501). Description: co-IP; 293T cells cotransfected with tagged constructs, with or without Def6 expression vector; cell extracts immunoprecipitated with anti-HA, western blotting. Background: Immunoblotting shows a protein as a band on a membrane.
Test [1] deals with T1, TRAF6 (endogenous, mouse T cells) (mouse (endogenous in T cells)) (UniProt P70196).
T1 sequence: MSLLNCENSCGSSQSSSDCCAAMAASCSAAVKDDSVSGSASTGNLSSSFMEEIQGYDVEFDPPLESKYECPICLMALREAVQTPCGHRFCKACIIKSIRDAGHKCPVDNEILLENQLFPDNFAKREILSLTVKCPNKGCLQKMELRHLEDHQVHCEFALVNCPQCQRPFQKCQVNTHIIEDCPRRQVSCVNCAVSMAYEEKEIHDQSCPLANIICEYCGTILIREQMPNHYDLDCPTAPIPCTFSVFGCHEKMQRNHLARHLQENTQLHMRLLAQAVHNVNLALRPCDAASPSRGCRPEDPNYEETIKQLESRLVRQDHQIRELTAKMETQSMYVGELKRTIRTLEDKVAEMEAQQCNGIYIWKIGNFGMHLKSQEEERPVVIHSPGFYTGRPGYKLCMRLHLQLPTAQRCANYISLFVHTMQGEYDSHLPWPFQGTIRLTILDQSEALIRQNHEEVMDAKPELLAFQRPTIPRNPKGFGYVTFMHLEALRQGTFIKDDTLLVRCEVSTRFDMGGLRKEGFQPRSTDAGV
The test is described as follows: co-IP; endogenous proteins; whole-cell extracts of wt mouse T cells; immunoprecipitation with anti-Raptor, anti-p62 or anti-TRAF6, western blotting.

The target in test [2] is p62 (endogenous, mouse T cells) (mouse (endogenous in T cells)) (UniProt Q64337). The description is as above.
For another test, the target named is HA-tagged Def6 (UniProt Q9H4E7). The test is described as follows: co-IP; 293T cells cotransfected with tagged constructs, with or without Def6 expression vector; cell extracts immunoprecipitated with anti-HA, western blotting.

Turning to “Def6 (untagged, expression vector) (from UniProt Q9H4E7 1-631)”, the binding entry with HA-tagged p62 is “binds”.

In the case of “Def6 (endogenous, mouse T cells) (from UniProt Q8C2K1 1-630)”, the binding entry in test [1] and in test [2] was “binds” in each case. “Myc-tagged raptor (from UniProt Q8N122 1-1335)”: the binding entry in the test with HA-tagged Def6 is listed as “no binding”.
